According to PMC5122416:
These are yes or no findings as the source states them, for the method shown. Binding seen in cells or lysates may run through a third protein. Some results given as binding are weak or reduced against the parent protein; the word gives no strength.

By UniProt entry, the sequences of proteins in these tests, tags left out.
UniProt O94953: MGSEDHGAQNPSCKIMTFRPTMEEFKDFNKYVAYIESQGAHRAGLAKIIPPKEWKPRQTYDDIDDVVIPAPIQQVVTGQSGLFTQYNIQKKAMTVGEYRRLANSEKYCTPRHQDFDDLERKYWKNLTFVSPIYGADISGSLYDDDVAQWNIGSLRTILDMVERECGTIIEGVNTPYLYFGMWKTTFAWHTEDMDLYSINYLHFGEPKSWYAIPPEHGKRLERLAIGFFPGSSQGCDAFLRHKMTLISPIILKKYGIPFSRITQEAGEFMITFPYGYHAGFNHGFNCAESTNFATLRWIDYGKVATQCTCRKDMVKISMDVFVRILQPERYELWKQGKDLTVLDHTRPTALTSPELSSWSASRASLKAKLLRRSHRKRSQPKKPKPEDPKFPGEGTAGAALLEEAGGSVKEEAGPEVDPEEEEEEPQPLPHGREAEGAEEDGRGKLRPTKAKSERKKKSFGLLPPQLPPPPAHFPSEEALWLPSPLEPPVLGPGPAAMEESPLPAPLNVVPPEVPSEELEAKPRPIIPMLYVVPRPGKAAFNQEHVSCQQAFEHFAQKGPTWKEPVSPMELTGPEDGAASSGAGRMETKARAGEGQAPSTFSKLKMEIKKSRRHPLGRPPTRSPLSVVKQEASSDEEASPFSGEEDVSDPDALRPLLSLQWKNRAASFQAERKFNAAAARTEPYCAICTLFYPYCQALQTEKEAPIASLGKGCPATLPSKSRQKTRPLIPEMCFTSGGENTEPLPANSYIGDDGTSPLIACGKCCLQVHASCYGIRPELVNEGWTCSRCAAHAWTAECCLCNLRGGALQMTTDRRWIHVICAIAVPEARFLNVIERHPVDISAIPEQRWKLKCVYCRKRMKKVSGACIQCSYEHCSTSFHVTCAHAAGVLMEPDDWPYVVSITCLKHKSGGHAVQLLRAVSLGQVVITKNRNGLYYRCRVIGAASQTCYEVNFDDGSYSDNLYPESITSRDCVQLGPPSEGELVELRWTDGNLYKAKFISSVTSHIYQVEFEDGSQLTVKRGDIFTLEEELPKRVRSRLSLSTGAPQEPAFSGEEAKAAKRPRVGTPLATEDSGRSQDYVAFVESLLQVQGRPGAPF
UniProt Q04206: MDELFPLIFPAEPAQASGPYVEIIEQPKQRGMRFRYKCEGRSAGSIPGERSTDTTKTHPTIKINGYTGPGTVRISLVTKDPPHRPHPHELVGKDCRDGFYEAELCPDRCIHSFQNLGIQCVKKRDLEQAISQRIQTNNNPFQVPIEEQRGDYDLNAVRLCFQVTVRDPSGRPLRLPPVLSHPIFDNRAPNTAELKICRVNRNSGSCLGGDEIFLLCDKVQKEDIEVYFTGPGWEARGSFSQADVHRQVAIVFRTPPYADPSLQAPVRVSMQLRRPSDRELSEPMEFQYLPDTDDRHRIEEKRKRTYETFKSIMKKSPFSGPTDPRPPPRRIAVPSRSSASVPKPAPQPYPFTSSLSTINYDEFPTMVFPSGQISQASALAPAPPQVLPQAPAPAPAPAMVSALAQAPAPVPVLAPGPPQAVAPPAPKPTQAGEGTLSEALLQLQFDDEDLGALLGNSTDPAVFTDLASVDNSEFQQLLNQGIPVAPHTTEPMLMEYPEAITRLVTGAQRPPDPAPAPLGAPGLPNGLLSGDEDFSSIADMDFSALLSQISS

Target: JMJD2B (human (endogenous in AGS and GES-1)) (UniProt O94953)
Assay: co-IP; AGS and GES-1 cells infected with H. pylori, lysed in RIPA buffer; immunoprecipitated with anti-JMJD2B antibody and protein G PLUS-Agarose beads at 4°C; p65 detected by Western blot

## NF-κB (p65) (from UniProt Q04206 1-551)
  binding: binds
